Screen size: about 320,000 compounds; about 22,000 (6.9%) were called active. Inconclusive results, whose numbers are uncertain, are shown with a selection of clear calls. The call rests on the fitted dose curve; in most records, active means well fitted inhibition curve with a large enough effect; inconclusive means small, poorly fitted or top-dose-only effect, or another doubt; inactive means no such curve, though single readings can be large or run the other way. Potencies beside an inconclusive call are fits to weak or partial responses and may not hold up.
Assay: Primary qHTS for delayed death inhibitors of the malarial parasite plastid, 96 hour incubation
Settings: P. falciparum luciferase reporter growth; series mostly up to 28.7 µM
Method in brief: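 Delayed-death screen, second-generation endpoint: infected erythrocytes, 2% hematocrit, 0.05% parasitemia final; 96 hours at 37 C, 5% CO2; luciferase detection reagent; luminescence decrease equals reduced growth.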
Potency means the concentration at half of the fitted maximal effect.

**Q.** For `CC(C)CC(=O)Nc1c2c(nn1-c1cccc(Cl)c1)CS(=O)(=O)C2`, which Potency is on record?
**A.** inactive

**Q.** Which Potency does the source give for `CNC(=O)CSc1nnc(SCCC(=O)O)s1` here?
**A.** inactive

**Q.** With `COc1cc(C(=O)OCC(=O)N2CCCCC2C)cc(NC(=O)c2cccs2)c1OC` (stereo not drawn) as the compound, how does the Potency read?
**A.** inconclusive: 0.329 µM [inhibitor, full curve, poor fit]

**Q.** Which Potency does the source give for `COc1ccc(-c2cc(C(F)(F)F)nc(NCc3cccs3)n2)cc1` here?
**A.** inconclusive: 3.7 µM [inhibitor, partial curve, poor fit]

**Q.** For `Cc1cc(C)n2nc(SCC(=O)N(C(C)C)C(C)C)nc2n1`, which Potency is on record?
**A.** inconclusive: 13.1 µM [inhibitor, partial curve, poor fit]

**Q.** With `Cc1cc(NC(=O)Nc2ccccc2Cl)no1` as the compound, how does the Potency read?
**A.** inconclusive: 11.7 µM [inhibitor, partial curve, poor fit]

**Q.** Which Potency does the source give for `C=CCN1C(=O)C(O)(CC(=O)c2ccc(N)cc2)c2ccccc21` (stereo not drawn) here?
**A.** inconclusive: 0.0928 µM [inhibitor, full curve, poor fit]

**Q.** For `Cc1cccc(NC(=O)CSc2nc3ccccc3nc2N2CCCC2)c1C`, which Potency is on record?
**A.** inconclusive: 13.1 µM [inhibitor, single point]

**Q.** With `OCCC1CN(Cc2ccccc2O)CCN1CCc1ccccc1` (stereo not drawn) as the compound, how does the Potency read?
**A.** inactive

**Q.** With `CCC(=O)N(CCc1ccc(OC)c(OC)c1)Cc1cc2ccc(C)cc2n2nnnc12` as the compound, how does the Potency read?
**A.** inconclusive: 18.5 µM [inhibitor, single point]

**Q.** Which Potency does the source give for `CCN1CCn2c3c(c4cc(Cl)ccc42)CCCC31` (stereo not drawn) here?
**A.** inactive

**Q.** Which Potency does the source give for `Cc1cc(=O)oc2c3c(cc(OCC(=O)NC(Cc4ccc(Cl)cc4)C(=O)O)c12)OC(C)(C)CC3` (stereo not drawn) here?
**A.** inconclusive: 18.5 µM [inhibitor, single point]

**Q.** For `CCO[C@@H]1OC(C(=O)N2CCN(C)CC2)=C[C@H](c2ccc(C(F)(F)F)cc2)[C@H]1CCCO`, which Potency is on record?
**A.** inconclusive: 8.28 µM [inhibitor, partial curve]

**Q.** With `C=CCn1c(C)cc(C(=O)CSc2nc3ccccc3c(=O)[nH]2)c1C` as the compound, how does the Potency read?
**A.** inconclusive: 13.1 µM [inhibitor, single point]

**Q.** With `CC(NC(=O)/C=C/c1cnc2ccccc2n1)C12CC3CC(CC(C3)C1)C2` (stereo not drawn) as the compound, how does the Potency read?
**A.** inactive

**Q.** With `Oc1ccccc1-c1nc(/C=C/c2ccccc2)nn1-c1ccccc1` as the compound, how does the Potency read?
**A.** inactive

**Q.** With `C=CCC1Cc2c(Br)cccc2C(CC=C)N1` (stereo not drawn) as the compound, how does the Potency read?
**A.** inconclusive: 13.1 µM [inhibitor, single point]

**Q.** Which Potency does the source give for `CCC(C)(C)C1CCC2(CC1)NC(=O)N(CC(=O)N(C)Cc1ccc(OC(F)F)cc1)C2=O` (stereo not drawn) here?
**A.** inconclusive: 18.5 µM [inhibitor, single point]

**Q.** Which Potency does the source give for `Cc1c(C(=O)N2CCCC2)sc(NC(=O)c2ccc(Cl)cc2)c1C#N` here?
**A.** inconclusive: 0.657 µM [inhibitor, full curve, poor fit]

**Q.** For `CC1(c2cc(C(F)(F)F)n3nc(C(=O)O)cc3n2)CC1`, which Potency is on record?
**A.** inactive

**Q.** Which Potency does the source give for `CCOc1ccc(CNS(=O)(=O)c2c(C(=O)N3CCCC3)c(C)n(C)c2C)cc1OC` here?
**A.** inactive

**Q.** For `CC1(C)CCc2cc(-c3ccnc(=S)[nH]3)ccc2O1`, which Potency is on record?
**A.** inactive

**Q.** With `CCNc1nc(NC(C)(C)C)nc(N(C#N)CC)n1` as the compound, how does the Potency read?
**A.** inconclusive: 10.4 µM [inhibitor, single point]

**Q.** Which Potency does the source give for `CC(Sc1nc2ccccc2s1)C(=O)c1c(N)n(C)c(=O)n(C)c1=O` (stereo not drawn) here?
**A.** inconclusive: 0.415 µM [inhibitor, partial curve, poor fit]

**Q.** For `O=C1NC(c2ccccc2)(C(F)(F)F)C(=O)N1Cc1cccnc1` (stereo not drawn), which Potency is on record?
**A.** inconclusive: 13.1 µM [inhibitor, single point]

**Q.** Which Potency does the source give for `CC(C)CCn1c(=O)c2ccccc2n2c(CCC(=O)NCC3CCCO3)nnc12` (stereo not drawn) here?
**A.** inconclusive: 18.5 µM [inhibitor, single point]

**Q.** Which Potency does the source give for `COc1ccc(/C=N/OCC(=O)NC(c2ccccc2)c2ccccc2)c(OC)c1` here?
**A.** inconclusive: 11.7 µM [inhibitor, single point]

**Q.** For `c1cc(-c2cn(C[C@H]3CC[C@@H]([C@@H]4CC[C@H](Cn5cc(-c6ccsc6)nn5)O4)O3)nn2)cs1`, which Potency is on record?
**A.** inconclusive: 0.147 µM [inhibitor, full curve, poor fit]

**Q.** With `CC(=O)c1cccc(NC(=O)CCc2nnc3ccc(N4CCOCC4)nn23)c1` as the compound, how does the Potency read?
**A.** active: 10.4 µM

**Q.** For `CCOc1ccc(NC(=O)CN(C)C(=O)c2ccc(NC3CC3)c([N+](=O)[O-])c2)cc1OCC`, which Potency is on record?
**A.** inconclusive: 11.7 µM [inhibitor, single point]

**Q.** Which Potency does the source give for `COC(=O)C1=C(C(=O)OC)[C@@H]2N(Cc3ccccc3)c3ccccc3[C@@]23C[C@@H](C(=O)OC)N(C(=O)c2ccc(Br)cc2)C3=N1` here?
**A.** inconclusive: 16.5 µM [inhibitor, single point]

**Q.** For `O=C(NCc1cccs1)c1csc2c1CCCCC2`, which Potency is on record?
**A.** inconclusive: 0.738 µM [inhibitor, full curve, poor fit]

**Q.** For `COc1ccccc1P(=O)(c1ccccc1)c1ccccc1NC(C)=O` (stereo not drawn), which Potency is on record?
**A.** inconclusive: 5.22 µM [inhibitor, partial curve, poor fit]

**Q.** With `O=C(COC(=O)c1ccccc1Nc1ccccc1)NCc1ccco1` as the compound, how does the Potency read?
**A.** inconclusive: 18.5 µM [inhibitor, single point]

**Q.** For `CCc1ccc(CC(=S)N2CCOCC2)cc1`, which Potency is on record?
**A.** inconclusive: 9.28 µM [inhibitor, single point]

**Q.** With `O=C1NC(=Nc2ccccc2)/C(=C/c2ccco2)S1` as the compound, how does the Potency read?
**A.** inconclusive: 10.4 µM [inhibitor, single point]

**Q.** With `CC(CC(=O)Nc1ccc(F)cc1F)S(=O)(=O)c1ccc2c(c1)NC(=O)CO2` (stereo not drawn) as the compound, how does the Potency read?
**A.** active: 6.57 µM

**Q.** For `CCOC(=O)c1ccc(Nc2nc(C)nc3c2nnn3Cc2ccccc2)cc1`, which Potency is on record?
**A.** inconclusive: 13.1 µM [inhibitor, single point]

**Q.** Which Potency does the source give for `Cc1ccccc1OCc1nc(-c2cccnc2)no1` here?
**A.** inconclusive: 18.5 µM [inhibitor, single point]

**Q.** Which Potency does the source give for `Cc1cc(C)n(C(C)CC(=O)Nc2ccc3c(c2)OCO3)n1` (stereo not drawn) here?
**A.** inactive

**Q.** Which Potency does the source give for `O=C(O)/C=C\C(=O)Nc1ccc(OCc2ccccc2)cc1` here?
**A.** active: 4.15 µM

**Q.** For `Cc1ccc(C(=O)NCC(=O)OCc2c(F)cccc2Cl)cc1`, which Potency is on record?
**A.** inactive

**Q.** For `O=C(O)/C=C/c1coc2ccccc2c1=O`, which Potency is on record?
**A.** inactive

**Q.** With `COc1cccc2c1cc1c(=O)n(CC(=O)N3CCCCCC3)nc(C)n12` as the compound, how does the Potency read?
**A.** inconclusive: 14.7 µM [inhibitor, single point]

**Q.** For `Cc1cc(N2CCC(C(=O)NC3CCCCC3)CC2)nc(-c2ccccc2)n1`, which Potency is on record?
**A.** inconclusive: 5.86 µM [inhibitor, partial curve, poor fit]

**Q.** Which Potency does the source give for `CC1CCN(CCCNC(=O)c2n[nH]c(=O)c3ccccc23)CC1` here?
**A.** active: 11.7 µM

**Q.** For `C=CCn1c(-c2ccc(OC)cc2)csc1=Nc1c(C)n(C)n(-c2ccccc2)c1=O`, which Potency is on record?
**A.** active: 14.7 µM

**Q.** Which Potency does the source give for `CCOc1ccc(NS(=O)(=O)c2ccc3[nH]c(=O)[nH]c3c2)cc1` here?
**A.** inactive

**Q.** With `COc1ccc(-c2noc(CN(C)C3CCOCC3)n2)cc1` as the compound, how does the Potency read?
**A.** inconclusive: 13.1 µM [inhibitor, single point]

**Q.** Which Potency does the source give for `CCN(c1ccccc1)S(=O)(=O)c1cc2c3c(c1)CCN3C(=O)CC2` here?
**A.** inconclusive: 18.5 µM [inhibitor, single point]

**Q.** With `COC(=O)[C@@H](NC(=O)NC1CCCCC1C)C(C)C` (stereo partly drawn) as the compound, how does the Potency read?
**A.** inconclusive: 0.586 µM [inhibitor, full curve, poor fit]

**Q.** With `COc1ccc2[nH]c(C)c(CCNCc3cccnc3)c2c1` as the compound, how does the Potency read?
**A.** inconclusive: 18.5 µM [inhibitor, single point]

**Q.** For `COc1ccc(-c2c(C(F)(F)F)oc3c(CN4CCN(C)CC4)c(O)ccc3c2=O)cc1`, which Potency is on record?
**A.** inconclusive: 2.62 µM [inhibitor, full curve, poor fit]

**Q.** For `COc1ccc(N2C(=O)N3[C@H](c4ccc(Cl)cc4)[C@@H]4C(=O)N(C5CCCCC5)C(=O)[C@@H]4[C@]3(Cc3ccc(Cl)cc3)C2=O)cc1`, which Potency is on record?
**A.** active: 1.17 µM

**Q.** With `Cc1cc(C)cc(-n2ncc3c2CCCC3NC(=O)C2CCC2)c1` (stereo not drawn) as the compound, how does the Potency read?
**A.** inconclusive: 16.5 µM [inhibitor, partial curve, poor fit]

**Q.** With `Cc1ccc(NC(=O)c2ccc3c(c2)[nH]c(=O)n3C(C)C)cc1` as the compound, how does the Potency read?
**A.** inconclusive: 18.5 µM [inhibitor, single point]

**Q.** Which Potency does the source give for `CC(=O)Nc1cccc(C(=O)OCC(=O)N(c2ccccc2)C2CCS(=O)(=O)C2)c1` (stereo not drawn) here?
**A.** inactive

**Q.** With `CCCCCCn1cc(C(=O)O)c(=O)c2cc(F)c(N3CCN(C(=O)OCC)CC3)cc21` as the compound, how does the Potency read?
**A.** inconclusive: 1.04 µM [inhibitor, partial curve, poor fit]

**Q.** With `COc1ccc(S(=O)(=O)N2CCN(CC(O)COc3ccc(CC#N)cc3)CC2)cc1OC` (stereo not drawn) as the compound, how does the Potency read?
**A.** inconclusive: 8.28 µM [inhibitor, partial curve]

**Q.** With `Cc1ccc(-n2c(SCC(=O)Nc3ccc4c5c(cccc35)CC4)nc(O)cc2=O)cc1` as the compound, how does the Potency read?
**A.** active: 2.62 µM

**Q.** For `O=C(CC1C(=O)N(Cc2ccccc2)C(=S)N1CCN1CCOCC1)Nc1ccc(F)cc1` (stereo not drawn), which Potency is on record?
**A.** inactive

**Q.** With `O=C1c2cc(S(=O)(=O)NCCO)ccc2-c2ccc(S(=O)(=O)NCCO)cc21` as the compound, how does the Potency read?
**A.** inactive

**Q.** With `Cn1ccc(=Nc2ccc(NC(=O)c3ccc(N=c4ccn(C)c5ccc([N+](=O)[O-])cc45)cc3)cc2)cc1` as the compound, how does the Potency read?
**A.** active: 0.165 µM

**Q.** With `CNC(=O)/C(=N\O)c1ccccc1` as the compound, how does the Potency read?
**A.** active: 9.28 µM

**Q.** With `COc1ccc(CCNCc2ccc(OCc3ccc(Cl)nc3)c(OC)c2)cc1OC` as the compound, how does the Potency read?
**A.** active: 11.7 µM

**Q.** With `COc1ccc(-c2oc3ncnc(NCCCO)c3c2-c2ccc(OC)cc2)cc1` as the compound, how does the Potency read?
**A.** active: 2.08 µM

**Q.** With `COCCN(C(=O)CSc1nnc(-c2ccccc2F)n1C)c1c(N)n(Cc2ccccc2)c(=O)[nH]c1=O` as the compound, how does the Potency read?
**A.** inconclusive: 18.5 µM [inhibitor, single point]
